Results as given in PubChem BioAssay AID540276 (National Center for Advancing Translational Sciences (NCATS), 2011).
Hit rate of the full screen: of about 300,000 compounds, about 5,400 (1.8%) were called active. Inconclusive means that the source gave no clear call. Such entries were picked first, then a sample of the others. The call rests on the fitted dose curve; tested in HEK293 cells. Where the call is inconclusive, the potency comes from a doubtful curve fit.

Assay: qHTS for inhibitors of binding or entry into cells for Marburg Virus
Details: Marburg virus pseudotyped entry inhibition, cell reporter; series mostly up to 37.8 µM
Potency means the concentration at half of the fitted maximal effect.

Row | Structure (SMILES) | Potency
1 | CCCCn1c(N)c(N(CC(C)C)C(=O)c2cnccn2)c(=O)[nH]c1=O | inactive
2 | C=CC(=O)N1C(=O)c2ccccc2S1(=O)=O | inactive
3 | COc1ccc(C(=O)Nc2ccc3nc(N4CCN(C)CC4)cc(C)c3c2)c(OC)c1 | inconclusive: 35.5 µM [inhibitor, single point]
4 | Cc1ccccc1/C=c1\s/c(=C\C(=O)C(C)(C)C)[nH]c1=O | inconclusive: 8.91 µM [inhibitor, partial curve, poor fit]
5 | O=C(COC(=O)c1cccc(-n2cnnn2)c1)c1ccc(Br)cc1 | inactive
6 | COc1cc(C(=O)Nc2ccc(F)cc2Cl)ccc1OCC(=O)N1CCOCC1 | inconclusive: 3.16 µM [inhibitor, single point]
7 | CCOC(=O)C1=C(C)N(C)C(=O)NC1c1c(OC)ccc2ccccc12 (centres undefined) | inconclusive: 6.31 µM [inhibitor, single point]
8 | C=C(Cl)COc1ccc2c(CC)cc(=O)oc2c1 | inactive
9 | CC(C)(C)c1ccc(NC(=O)COC(=O)CCN2C(=O)c3cccc([N+](=O)[O-])c3C2=O)cc1 | inactive
10 | Cc1ccc2nc(-c3ccccc3O)c(Nc3ccc4c(c3)OCCO4)n2c1 | inconclusive: 35.5 µM [inhibitor, single point]
11 | COc1ccc(C(CC(=O)c2ccccc2)CC(=O)c2ccccc2)cc1OC | inconclusive: 7.94 µM [inhibitor, partial curve, poor fit]
12 | Brc1ccc(N=C(c2ccccc2)c2ccncc2)cc1 | inconclusive: 20 µM [inhibitor, single point]
13 | O=C(O)c1cccc(Oc2ccc(C(=O)O)c([N+](=O)[O-])c2)c1 | inactive
14 | COc1cc(C(=O)Oc2ccccc2/C=N/NC(=O)c2ccc(C)cc2)cc(OC)c1OC | inconclusive: 14.1 µM [inhibitor, single point]
15 | CCCCOc1ccc(NC(=O)CSc2ccc(C(=O)O)cn2)cc1 | inconclusive: 0.562 µM [activator, partial curve, poor fit]
16 | O=C(C1CCN(S(=O)(=O)N2CCOCC2)CC1)N1CCN(c2ccccc2)CC1 | inconclusive: 0.112 µM [inhibitor, full curve, poor fit]
17 | CCOC(=O)C1(CC2CC2)CCN(S(=O)(=O)/C=C/c2ccccc2)CC1 | inconclusive: 12.6 µM [inhibitor, single point]
18 | Oc1ccc2cc(Br)ccc2c1CN1CCCC1 | inactive
19 | Cc1cc2n(n1)SC(Nc1ccc(F)cc1)N2 (centres undefined) | inconclusive: 20.6 µM [activator, single point]
20 | Cc1cccc(N=N/C(=C\O)C(=O)c2cccs2)c1 | inconclusive: 7.94 µM [inhibitor, partial curve, poor fit]
21 | O=C(O)C(Cc1ccccc1)N1C(=O)c2ccccc2C1=O (centres undefined) | inactive
22 | CN(C(=O)c1ccc2c(c1)OCO2)C1(C(=O)NC2CCCC2)CCCCC1 | inactive
23 | CCC(=O)N1CCc2cc(S(=O)(=O)NCCC(=O)NC(C)c3ccccc3)ccc21 (centres undefined) | inactive
24 | CN1C2=C(C#N)C(c3ccccc3)(C(F)(F)F)NC(=O)N2c2ccccc21 (centres undefined) | inactive
25 | CN(C)c1ccc(C=NNC(=O)c2cccnc2)cc1 | inconclusive: 3.16 µM [activator, full curve, poor fit]

Exported field by field: entries from further up
O=C(O)C(Cc1ccccc1)N1C(=O)c2ccccc2C1=O (centres undefined)
  Potency: inactive
CN(C(=O)c1ccc2c(c1)OCO2)C1(C(=O)NC2CCCC2)CCCCC1
  Potency: inactive

Further entries:

Row | Structure (SMILES) | Potency
26 | O=C(Nc1ccc(NC(=O)c2ccccc2F)cc1)c1ccccc1F | inconclusive: 35.5 µM [activator, single point]
27 | COc1ccc(Cl)cc1NC(=O)Nc1ccc(C(=O)N2CCOCC2)cc1 | inactive
28 | Nc1nc(NCCc2ccccc2)nc(NCc2ccccc2)c1[N+](=O)[O-] | inactive
30 | O=C(O)c1cccc(COc2cccc3ccccc23)c1 | inconclusive: 10 µM [inhibitor, partial curve, poor fit]
31 | CC1CC(C)CN(S(=O)(=O)c2ccc(C(=O)N(c3ccccn3)C3CCCCC3)cc2)C1 (centres undefined) | inconclusive: 8.91 µM [inhibitor, partial curve]
32 | Cc1ccc(CN(C)C(=O)c2cc(COc3ccc(F)cc3Cl)on2)o1 | inactive
33 | COc1ccc(C)cc1NC(=O)CCC(=O)Nc1nnc(C2CCCCC2)s1 | inactive
34 | CCOc1cc(/C=C/C(=O)c2ccc3c(c2)OCCO3)ccc1OCC(=O)N(C)C | inconclusive: 7.08 µM [inhibitor, single point]
35 | Cc1cc(C)nc(N2CCC(C(=O)Nc3ccc(Oc4ccccc4)cc3)CC2)n1 | inactive
36 | O=C(NC1CCCC1)C(c1ccsc1)N(Cc1ccccc1)C(=O)Cc1cccs1 (centres undefined) | inconclusive: 20 µM [inhibitor, single point]
37 | Cn1ccc(C(=O)OCC(=O)Nc2ccccc2)n1 | inactive
38 | Cc1cccc(CSc2ncc(CO)n2C)c1 | inactive
39 | Nc1nonc1-n1nnc(C(=O)N/N=C/c2cccc(Cl)c2Cl)c1CN1CCCC1 | inactive
40 | CCCC1(C)C(C#N)(C#N)C1(C#N)C#N | active: 16.4 µM
41 | O=C(NN=C1CCCCCC1)c1cn(-c2ccccc2)nc1-c1ccccc1 | inconclusive: 16.4 µM [inhibitor, partial curve, poor fit]
42 | COCC(=O)N/N=C/c1c(C)[nH]n(-c2ccccc2)c1=O | inactive
43 | O=C(C1CCN(S(=O)(=O)c2cccc3nonc23)CC1)N1CCN(c2ccc(F)cc2)CC1 | inactive
44 | Cc1c(Nc2nc(-c3ccccc3)cs2)c(=O)n(-c2ccccc2)n1C | inconclusive: 3.98 µM [activator, full curve]
45 | Nc1ccccc1SCC(=O)N1CCc2ccccc21 | inconclusive: 2.24 µM [activator, partial curve]
46 | COc1cc(/C=C/C(=O)OCC(=O)N2CCN(S(=O)(=O)c3ccc(C)cc3C)CC2)cc(Cl)c1OC | inconclusive: 35.5 µM [inhibitor, single point]
47 | Oc1c(Br)cc(Br)cc1/C=N/NC(=S)N[C@H]1CC2C=CC1C2 (some centres undefined) | inconclusive: 22.4 µM [inhibitor, single point]
48 | O=C(NC(=S)Nc1ccc2oc(=O)ccc2c1)c1ccco1 | inactive
49 | OCCn1c(-c2ccc(F)cc2)csc1=Nc1ccccc1 | inactive
